According to publication PMC11667169:
These are yes or no findings as the source states them, for the method shown. Binding seen in cells or lysates may run through a third protein. Some results given as binding are weak or reduced against the parent protein; the word gives no strength.

Amino acid sequences for entries named in this document (tags omitted). A change or cut given only in a name is not applied to a line headed by its entry.
UniProt Q99720: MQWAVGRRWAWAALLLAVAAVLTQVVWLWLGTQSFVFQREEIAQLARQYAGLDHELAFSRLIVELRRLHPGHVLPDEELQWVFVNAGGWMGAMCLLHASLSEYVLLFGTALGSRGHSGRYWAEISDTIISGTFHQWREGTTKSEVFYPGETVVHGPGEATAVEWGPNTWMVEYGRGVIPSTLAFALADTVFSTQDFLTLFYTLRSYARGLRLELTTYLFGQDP
UniProt P06199: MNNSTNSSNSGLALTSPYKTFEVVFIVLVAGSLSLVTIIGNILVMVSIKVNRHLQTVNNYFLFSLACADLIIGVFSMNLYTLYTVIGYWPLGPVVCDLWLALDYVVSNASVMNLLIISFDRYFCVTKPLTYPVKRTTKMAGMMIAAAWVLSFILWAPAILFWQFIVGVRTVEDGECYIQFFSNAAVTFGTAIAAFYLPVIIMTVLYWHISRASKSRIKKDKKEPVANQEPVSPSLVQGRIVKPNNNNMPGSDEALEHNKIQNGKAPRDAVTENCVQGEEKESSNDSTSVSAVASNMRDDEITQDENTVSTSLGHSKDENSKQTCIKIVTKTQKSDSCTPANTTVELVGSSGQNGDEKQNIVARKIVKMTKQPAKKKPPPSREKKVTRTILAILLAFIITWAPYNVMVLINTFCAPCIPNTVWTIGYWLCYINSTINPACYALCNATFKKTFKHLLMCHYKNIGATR

Columns and labels:
Assay in all cases: co-IP; HEK293T cells co-transfected with tagged M2R (or mutant) and S1R-V5-His (or E102Q), lysed after 48 h; lysate precleared with protein G Sepharose; IP with mouse anti-EGFP antibody (M2R) or mouse anti-V5 antibody (S1R) and G-Sepharose, 2 h at 4 °C, three washes; Western blot with anti-M2R (or anti-EGFP) and anti-His antibodies
[1] = target: S1R E102Q with V5 and His tags (human) (UniProt Q99720)
[2] = target: Sigma-1 receptor tagged with V5 and His tags (S1R-V5-His) (human) (UniProt Q99720)
[3] = target: M2-muscarinic acetylcholine receptor tagged with EGFP (M2R-EGFP) (porcine) (UniProt P06199)
M2R A401T-CFP (porcine) = M2R A401T-CFP (porcine) (UniProt P06199)
[4] = target: M2R E172P/E175Q-CFP (porcine) (UniProt P06199)
M2R-CFP (porcine) = M2R-CFP (porcine) (UniProt P06199)

Row | binding [2] | binding [3] | Substance | also measured
1 | binds |  | M2-muscarinic acetylcholine receptor tagged with EGFP (M2R-EGFP) (from UniProt P06199 1-466) | binding [1]: binds
2 | binds |  | M2R A401T-CFP (from UniProt P06199 1-466) (receptor) | 
3 | binds |  | M2R E172P/E175Q-CFP (from UniProt P06199 1-466) (receptor) | 
4 |  | binds | S1R E102Q with V5 and His tags (from UniProt Q99720 1-223) | 

The remaining lines, values behind:

Row | Substance | binding [2] | binding [3] | also measured
5 | M2R-CFP (from UniProt P06199 1-466) (receptor) | binds |  | 
6 | Sigma-1 receptor tagged with V5 and His tags (S1R-V5-His) (from UniProt Q99720 1-223) |  | binds | binding (M2R A401T-CFP (porcine)): binds; binding [4]: binds; binding (M2R-CFP (porcine)): binds
